Publication PMC11381323
No constants are given. Whether binding was seen depends on the method and setting. Binding seen in cells or lysates may run through a third protein. Some entries that bind do so weakly or less than the wild type.

Protein sequences, listed by entry. Tags and fused reporters are not part of them. Residues count along the entry.
UniProt P02545, residues 1-646: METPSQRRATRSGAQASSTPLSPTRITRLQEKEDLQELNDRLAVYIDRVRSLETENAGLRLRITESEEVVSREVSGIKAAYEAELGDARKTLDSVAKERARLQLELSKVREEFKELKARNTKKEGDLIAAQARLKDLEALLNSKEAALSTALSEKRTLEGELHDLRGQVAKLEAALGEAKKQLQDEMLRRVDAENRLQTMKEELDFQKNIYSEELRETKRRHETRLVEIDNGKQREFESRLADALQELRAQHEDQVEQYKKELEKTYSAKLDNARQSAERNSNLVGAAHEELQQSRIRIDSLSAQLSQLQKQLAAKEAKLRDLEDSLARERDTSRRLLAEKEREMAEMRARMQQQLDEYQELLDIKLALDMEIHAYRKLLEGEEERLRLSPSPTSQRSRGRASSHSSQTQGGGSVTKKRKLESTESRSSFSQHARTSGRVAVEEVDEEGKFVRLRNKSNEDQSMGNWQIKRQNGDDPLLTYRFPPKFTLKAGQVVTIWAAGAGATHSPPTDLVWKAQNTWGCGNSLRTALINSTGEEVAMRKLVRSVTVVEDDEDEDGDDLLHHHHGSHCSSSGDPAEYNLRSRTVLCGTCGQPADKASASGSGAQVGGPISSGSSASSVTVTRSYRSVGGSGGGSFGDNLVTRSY
UniProt Q9UKV8: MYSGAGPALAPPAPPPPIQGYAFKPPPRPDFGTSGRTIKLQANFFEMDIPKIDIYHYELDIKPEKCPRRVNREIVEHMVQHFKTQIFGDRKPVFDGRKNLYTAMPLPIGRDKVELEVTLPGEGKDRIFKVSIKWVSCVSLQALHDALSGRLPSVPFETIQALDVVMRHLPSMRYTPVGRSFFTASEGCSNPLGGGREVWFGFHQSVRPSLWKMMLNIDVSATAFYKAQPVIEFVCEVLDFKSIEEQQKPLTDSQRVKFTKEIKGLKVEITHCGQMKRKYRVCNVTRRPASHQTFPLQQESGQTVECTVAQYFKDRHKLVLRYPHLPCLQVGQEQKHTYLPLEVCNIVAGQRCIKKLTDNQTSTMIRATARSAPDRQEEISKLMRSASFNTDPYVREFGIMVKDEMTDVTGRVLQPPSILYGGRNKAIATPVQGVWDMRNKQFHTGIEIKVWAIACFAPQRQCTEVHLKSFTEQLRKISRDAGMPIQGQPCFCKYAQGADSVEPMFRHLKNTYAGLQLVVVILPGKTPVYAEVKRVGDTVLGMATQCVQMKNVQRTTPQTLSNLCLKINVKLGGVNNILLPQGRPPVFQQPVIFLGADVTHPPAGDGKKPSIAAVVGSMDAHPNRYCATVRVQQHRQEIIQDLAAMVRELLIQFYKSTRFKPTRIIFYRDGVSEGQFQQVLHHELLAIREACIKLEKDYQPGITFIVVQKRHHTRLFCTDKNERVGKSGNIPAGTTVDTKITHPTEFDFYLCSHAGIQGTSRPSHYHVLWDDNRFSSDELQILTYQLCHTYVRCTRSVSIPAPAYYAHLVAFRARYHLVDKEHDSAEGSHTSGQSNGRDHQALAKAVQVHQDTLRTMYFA

Target: Lamin A (human (endogenous in HeLa)) (UniProt P02545)
Experiment: co-IP; HeLa cells; shown in Supplemental Figure S5C; bait and conditions not given

Argonaute 2 (AGO2) (from UniProt Q9UKV8 1-859)
binding: binds
